# Laboratory results as given in the supplement of paper PMC6411743.
# Sequences of proteins named here, by UniProt entry; tags and fusion partners are left off. A change or cut given only in a name is not applied to a line headed by its entry.
# UniProt Q9Y5P6: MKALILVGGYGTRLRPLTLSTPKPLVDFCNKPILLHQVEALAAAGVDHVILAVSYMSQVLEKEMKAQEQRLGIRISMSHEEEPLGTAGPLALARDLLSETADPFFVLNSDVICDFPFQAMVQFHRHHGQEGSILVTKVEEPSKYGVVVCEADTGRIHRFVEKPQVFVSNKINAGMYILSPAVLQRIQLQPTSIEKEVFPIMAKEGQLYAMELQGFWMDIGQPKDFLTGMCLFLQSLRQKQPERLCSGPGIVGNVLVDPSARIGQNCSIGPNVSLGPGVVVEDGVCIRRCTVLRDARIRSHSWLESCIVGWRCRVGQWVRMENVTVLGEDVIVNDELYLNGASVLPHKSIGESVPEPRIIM
# UniProt Q9Y3A4: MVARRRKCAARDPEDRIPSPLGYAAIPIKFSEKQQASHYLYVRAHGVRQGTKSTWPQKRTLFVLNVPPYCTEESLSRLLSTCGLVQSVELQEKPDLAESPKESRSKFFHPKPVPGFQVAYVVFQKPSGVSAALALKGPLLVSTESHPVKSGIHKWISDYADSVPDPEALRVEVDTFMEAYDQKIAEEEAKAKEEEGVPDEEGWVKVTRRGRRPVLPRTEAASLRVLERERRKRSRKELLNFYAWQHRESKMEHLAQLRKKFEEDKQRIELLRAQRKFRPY
# UniProt Q9Y5Y5: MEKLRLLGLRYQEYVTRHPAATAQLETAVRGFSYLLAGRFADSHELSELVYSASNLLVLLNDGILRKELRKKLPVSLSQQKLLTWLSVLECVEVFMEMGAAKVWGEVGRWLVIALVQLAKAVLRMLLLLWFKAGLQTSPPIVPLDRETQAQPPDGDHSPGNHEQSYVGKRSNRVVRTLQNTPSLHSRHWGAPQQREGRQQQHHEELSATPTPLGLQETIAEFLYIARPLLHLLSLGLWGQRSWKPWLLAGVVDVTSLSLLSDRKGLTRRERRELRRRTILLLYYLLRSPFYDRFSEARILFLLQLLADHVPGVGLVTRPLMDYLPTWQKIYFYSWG
# UniProt Q9Y5V3: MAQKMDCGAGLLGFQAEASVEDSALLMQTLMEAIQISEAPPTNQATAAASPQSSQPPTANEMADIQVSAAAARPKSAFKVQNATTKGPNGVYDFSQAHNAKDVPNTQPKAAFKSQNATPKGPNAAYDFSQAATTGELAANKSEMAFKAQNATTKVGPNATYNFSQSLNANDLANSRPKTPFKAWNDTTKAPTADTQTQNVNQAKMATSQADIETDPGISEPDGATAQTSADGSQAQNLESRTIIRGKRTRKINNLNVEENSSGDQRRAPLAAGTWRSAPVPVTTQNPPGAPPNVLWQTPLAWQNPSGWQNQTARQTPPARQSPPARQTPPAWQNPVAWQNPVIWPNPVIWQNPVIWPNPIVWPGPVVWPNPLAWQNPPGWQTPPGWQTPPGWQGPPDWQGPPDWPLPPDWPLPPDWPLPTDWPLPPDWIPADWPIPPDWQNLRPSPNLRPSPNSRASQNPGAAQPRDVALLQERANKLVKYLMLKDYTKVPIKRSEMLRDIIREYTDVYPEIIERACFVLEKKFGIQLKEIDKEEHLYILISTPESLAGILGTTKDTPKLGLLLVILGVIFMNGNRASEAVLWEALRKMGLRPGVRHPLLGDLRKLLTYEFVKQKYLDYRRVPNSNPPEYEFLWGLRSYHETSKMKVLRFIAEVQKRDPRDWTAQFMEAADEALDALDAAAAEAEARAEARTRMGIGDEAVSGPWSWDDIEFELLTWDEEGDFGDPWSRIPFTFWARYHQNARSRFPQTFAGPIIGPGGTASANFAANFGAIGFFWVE
# UniProt Q9Y6W5, whole entry: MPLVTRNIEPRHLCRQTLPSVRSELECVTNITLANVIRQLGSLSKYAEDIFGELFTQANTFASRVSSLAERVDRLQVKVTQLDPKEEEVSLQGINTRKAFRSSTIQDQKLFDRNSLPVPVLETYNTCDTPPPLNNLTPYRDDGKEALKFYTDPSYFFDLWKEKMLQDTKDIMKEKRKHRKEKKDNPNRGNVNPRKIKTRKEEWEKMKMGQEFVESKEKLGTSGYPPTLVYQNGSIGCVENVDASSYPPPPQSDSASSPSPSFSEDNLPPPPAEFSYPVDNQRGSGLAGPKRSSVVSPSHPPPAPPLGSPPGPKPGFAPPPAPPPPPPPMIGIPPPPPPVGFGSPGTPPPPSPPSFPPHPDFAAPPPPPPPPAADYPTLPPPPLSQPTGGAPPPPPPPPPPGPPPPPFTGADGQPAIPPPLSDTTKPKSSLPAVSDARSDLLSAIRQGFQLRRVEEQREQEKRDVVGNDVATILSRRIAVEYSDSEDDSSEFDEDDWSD
# UniProt Q9Y448: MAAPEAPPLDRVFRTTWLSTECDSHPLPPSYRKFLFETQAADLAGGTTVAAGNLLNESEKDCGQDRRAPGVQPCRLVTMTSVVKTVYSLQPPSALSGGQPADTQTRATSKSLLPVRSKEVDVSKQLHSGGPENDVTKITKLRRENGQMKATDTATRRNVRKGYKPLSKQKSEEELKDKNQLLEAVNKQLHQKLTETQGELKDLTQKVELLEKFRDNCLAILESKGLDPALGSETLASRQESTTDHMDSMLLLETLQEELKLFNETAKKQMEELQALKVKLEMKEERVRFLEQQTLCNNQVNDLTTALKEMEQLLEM
# UniProt Q9Y4F3: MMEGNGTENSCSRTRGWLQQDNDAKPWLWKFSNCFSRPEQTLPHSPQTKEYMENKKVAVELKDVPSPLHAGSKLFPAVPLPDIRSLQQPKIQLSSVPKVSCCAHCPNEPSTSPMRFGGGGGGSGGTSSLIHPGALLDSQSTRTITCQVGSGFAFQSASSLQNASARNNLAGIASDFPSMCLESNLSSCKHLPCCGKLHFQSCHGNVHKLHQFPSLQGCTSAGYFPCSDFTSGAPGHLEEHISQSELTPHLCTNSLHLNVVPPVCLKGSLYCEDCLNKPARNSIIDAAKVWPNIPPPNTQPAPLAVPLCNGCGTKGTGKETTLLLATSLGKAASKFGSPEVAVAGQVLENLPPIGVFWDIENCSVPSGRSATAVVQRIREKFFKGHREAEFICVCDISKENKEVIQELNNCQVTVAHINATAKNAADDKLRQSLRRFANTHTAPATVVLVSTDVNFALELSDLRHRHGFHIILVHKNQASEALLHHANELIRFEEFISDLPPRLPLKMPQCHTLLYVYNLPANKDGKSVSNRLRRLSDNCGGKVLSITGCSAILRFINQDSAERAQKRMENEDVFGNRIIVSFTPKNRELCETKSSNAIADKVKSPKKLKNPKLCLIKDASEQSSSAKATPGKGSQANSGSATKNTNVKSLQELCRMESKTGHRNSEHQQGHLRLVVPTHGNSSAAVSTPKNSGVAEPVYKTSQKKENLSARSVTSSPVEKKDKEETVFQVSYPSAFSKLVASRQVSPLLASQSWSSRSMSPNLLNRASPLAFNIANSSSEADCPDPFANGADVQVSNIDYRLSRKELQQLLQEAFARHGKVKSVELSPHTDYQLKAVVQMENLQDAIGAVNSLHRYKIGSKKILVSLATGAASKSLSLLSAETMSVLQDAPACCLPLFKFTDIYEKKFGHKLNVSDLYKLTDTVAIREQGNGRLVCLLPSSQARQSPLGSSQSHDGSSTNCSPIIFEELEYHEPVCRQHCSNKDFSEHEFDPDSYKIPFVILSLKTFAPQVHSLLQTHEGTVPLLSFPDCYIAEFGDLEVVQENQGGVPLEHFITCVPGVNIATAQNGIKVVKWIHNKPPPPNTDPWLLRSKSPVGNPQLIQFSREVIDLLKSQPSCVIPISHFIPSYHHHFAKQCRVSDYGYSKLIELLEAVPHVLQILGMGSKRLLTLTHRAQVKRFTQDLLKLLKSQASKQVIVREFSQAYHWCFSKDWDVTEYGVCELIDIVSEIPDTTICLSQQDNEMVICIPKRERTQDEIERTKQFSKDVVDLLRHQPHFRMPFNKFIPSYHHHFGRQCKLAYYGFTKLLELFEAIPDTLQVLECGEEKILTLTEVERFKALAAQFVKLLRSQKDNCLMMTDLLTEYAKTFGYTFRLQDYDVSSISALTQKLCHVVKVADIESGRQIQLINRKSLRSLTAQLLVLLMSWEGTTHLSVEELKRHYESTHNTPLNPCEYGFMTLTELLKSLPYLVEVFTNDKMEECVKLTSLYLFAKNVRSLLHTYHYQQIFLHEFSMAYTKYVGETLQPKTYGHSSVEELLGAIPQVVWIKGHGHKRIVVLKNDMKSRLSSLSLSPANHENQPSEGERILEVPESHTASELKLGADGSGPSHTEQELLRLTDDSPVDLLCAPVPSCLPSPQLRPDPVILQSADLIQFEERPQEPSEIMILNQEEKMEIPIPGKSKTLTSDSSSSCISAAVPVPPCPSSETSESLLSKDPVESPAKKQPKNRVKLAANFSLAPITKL
# UniProt Q9Y2S6, whole entry: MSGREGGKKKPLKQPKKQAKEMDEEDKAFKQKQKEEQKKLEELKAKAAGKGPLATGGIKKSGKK
# UniProt Q9Y5K8, whole entry: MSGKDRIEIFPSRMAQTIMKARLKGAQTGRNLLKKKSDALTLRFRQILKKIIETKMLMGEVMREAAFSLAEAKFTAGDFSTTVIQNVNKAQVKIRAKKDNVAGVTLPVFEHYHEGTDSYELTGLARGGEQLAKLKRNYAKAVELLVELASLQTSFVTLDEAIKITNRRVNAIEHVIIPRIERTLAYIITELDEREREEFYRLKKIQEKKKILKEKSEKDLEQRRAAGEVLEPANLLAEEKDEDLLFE
# UniProt Q5VZ89: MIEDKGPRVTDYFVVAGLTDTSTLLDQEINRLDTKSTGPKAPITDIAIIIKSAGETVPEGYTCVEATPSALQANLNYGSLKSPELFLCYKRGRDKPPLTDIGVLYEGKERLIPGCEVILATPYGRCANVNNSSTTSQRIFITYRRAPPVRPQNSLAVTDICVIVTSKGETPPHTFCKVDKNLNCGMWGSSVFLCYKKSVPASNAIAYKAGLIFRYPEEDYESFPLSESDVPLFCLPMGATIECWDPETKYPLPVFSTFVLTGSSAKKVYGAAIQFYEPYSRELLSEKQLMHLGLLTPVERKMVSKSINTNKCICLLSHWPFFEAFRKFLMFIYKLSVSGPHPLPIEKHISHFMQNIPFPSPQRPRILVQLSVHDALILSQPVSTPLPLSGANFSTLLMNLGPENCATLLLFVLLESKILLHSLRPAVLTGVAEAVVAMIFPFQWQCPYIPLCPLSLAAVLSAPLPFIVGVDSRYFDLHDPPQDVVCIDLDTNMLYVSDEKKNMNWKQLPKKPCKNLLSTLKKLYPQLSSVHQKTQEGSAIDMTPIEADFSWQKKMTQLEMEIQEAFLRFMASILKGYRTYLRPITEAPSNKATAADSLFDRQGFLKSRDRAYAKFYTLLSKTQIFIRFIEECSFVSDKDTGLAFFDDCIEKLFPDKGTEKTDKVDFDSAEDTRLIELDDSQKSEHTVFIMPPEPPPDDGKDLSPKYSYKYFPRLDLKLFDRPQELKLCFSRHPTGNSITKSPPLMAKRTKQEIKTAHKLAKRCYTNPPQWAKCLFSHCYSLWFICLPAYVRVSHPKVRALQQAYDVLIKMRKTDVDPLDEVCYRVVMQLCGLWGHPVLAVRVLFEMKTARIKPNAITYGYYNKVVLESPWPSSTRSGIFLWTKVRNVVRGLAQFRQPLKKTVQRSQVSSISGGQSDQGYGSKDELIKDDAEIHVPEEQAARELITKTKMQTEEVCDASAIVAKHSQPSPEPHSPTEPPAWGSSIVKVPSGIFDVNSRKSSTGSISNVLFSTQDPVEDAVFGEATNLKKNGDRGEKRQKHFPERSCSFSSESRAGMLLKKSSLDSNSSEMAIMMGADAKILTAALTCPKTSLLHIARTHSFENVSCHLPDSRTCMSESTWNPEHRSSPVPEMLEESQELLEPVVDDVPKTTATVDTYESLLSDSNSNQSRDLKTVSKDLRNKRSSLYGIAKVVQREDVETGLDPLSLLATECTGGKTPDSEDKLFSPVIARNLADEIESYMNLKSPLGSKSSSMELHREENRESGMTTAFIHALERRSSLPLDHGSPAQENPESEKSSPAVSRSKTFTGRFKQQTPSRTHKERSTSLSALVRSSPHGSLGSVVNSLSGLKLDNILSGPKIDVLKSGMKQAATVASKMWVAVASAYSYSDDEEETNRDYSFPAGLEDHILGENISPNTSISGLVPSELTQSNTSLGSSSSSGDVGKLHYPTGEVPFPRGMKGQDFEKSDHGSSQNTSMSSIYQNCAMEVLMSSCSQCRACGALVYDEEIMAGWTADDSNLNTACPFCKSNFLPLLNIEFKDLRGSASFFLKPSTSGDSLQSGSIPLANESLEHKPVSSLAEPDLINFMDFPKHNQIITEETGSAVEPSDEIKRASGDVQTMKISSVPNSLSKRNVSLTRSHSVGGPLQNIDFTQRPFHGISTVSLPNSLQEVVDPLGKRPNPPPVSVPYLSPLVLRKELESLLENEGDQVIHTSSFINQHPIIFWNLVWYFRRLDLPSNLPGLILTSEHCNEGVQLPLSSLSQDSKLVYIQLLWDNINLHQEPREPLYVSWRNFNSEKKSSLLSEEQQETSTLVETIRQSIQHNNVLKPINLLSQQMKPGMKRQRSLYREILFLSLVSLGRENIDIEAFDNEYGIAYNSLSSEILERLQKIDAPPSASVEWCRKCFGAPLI
# ± gives the standard deviation of the averaged measurements. This is a selection; strong and weak results do not stand in their true shares.
# Compound: Nc1ncnc2c1ncn2[C@@H]1O[C@H](COP(=O)(O)OP(=O)(O)OP(=O)(O)O)[C@@H](O)[C@H]1O [adenosine triphosphate]
# Assay: NP40-soluble protein abundance relative to vehicle (solubility fold change) (ratio); higher = more soluble protein in presence of ATP
# Procedure, shortened: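 Data come from three independent experiments in which Dounce-homogenised Jurkat crude lysate was treated at eight concentrations from 0.1 to 10 mM. Treatment ran 10 min at room temperature and then 3 min at 37 °C, after which 0.8% NP40 and benzonase were added for 60 min at 4 °C before ultracentrifugation. The supernatant underwent TMT labelling and LC-MS/MS, and vsn-normalised intensities were expressed as fold change against the detergent-processed vehicle in each replicate.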
Target,NP40-soluble protein abundance (concentration: 1mM),NP40-soluble protein abundance (concentration: 2mM),NP40-soluble protein abundance (concentration: 4mM),NP40-soluble protein abundance (concentration: 6mM),NP40-soluble protein abundance (concentration: 8mM),NP40-soluble protein abundance (concentration: 10mM)
CARHSP1 (UniProt Q9Y2V2),0.885 ± 0.051,0.893 ± 0.029,0.851 ± 0.038,0.864 ± 0.024,0.85 ± 0.047,0.813 ± 0.051
AFG3L2 (UniProt Q9Y4W6),1.01 ± 0.028,1.01 ± 0.018,0.983 ± 0.031,1.03 ± 0.014,1.03 ± 0.044,1.02 ± 0.018
GMPPB (UniProt Q9Y5P6),1 ± 0.07,0.969 ± 0.062,0.987 ± 0.075,0.953 ± 0.093,0.978 ± 0.039,0.945 ± 0.057
RRP7A (UniProt Q9Y3A4),0.988 ± 0.046,0.93 ± 0.12,1 ± 0.049,1.09 ± 0.12,1.1 ± 0.056,1.27 ± 0.21
TMED7 (UniProt Q9Y3B3),1.08 ± 0.011,1.03 ± 0.081,1.06 ± 0.098,0.947 ± 0.16,0.979 ± 0.027,1.03 ± 0.036
UniProt Q9Y5Y5 and related entries,1 ± 0.13,0.96 ± 0.14,0.946 ± 0.07,0.796 ± 0.16,0.914 ± 0.015,0.97 ± 0.03
F11R (UniProt Q9Y624),0.924 ± 0.081,0.929 ± 0.049,0.933 ± 0.1,0.949 ± 0.085,0.88 ± 0.051,0.902 ± 0.1
UniProt Q9Y5V3 and related entries,1.03 ± 0.099,1.01 ± 0.099,1.01 ± 0.079,1.07 ± 0.23,1.03 ± 0.095,1.05 ± 0.12
WASF2 (UniProt Q9Y6W5),0.93 ± 0.039,0.934 ± 0.022,0.911 ± 0.021,0.97 ± 0.064,0.906 ± 0.051,0.935 ± 0.02
UTP18 (UniProt Q9Y5J1),1.114 ± 0.0018,1.15 ± 0.053,1.28 ± 0.057,1.39 ± 0.041,1.5 ± 0.057,1.59 ± 0.13
UniProt Q9Y2X7 and related entries,0.973 ± 0.025,0.981 ± 0.014,0.966 ± 0.031,0.975 ± 0.032,0.953 ± 0.044,0.963 ± 0.048
YTHDF2 (UniProt Q9Y5A9),1.01 ± 0.029,0.98 ± 0.035,0.989 ± 0.052,1.02 ± 0.056,0.994 ± 0.031,1.03 ± 0.018
UniProt Q9Y606 and related entries,0.98 ± 0.045,1.01 ± 0.039,0.989 ± 0.033,0.938 ± 0.021,0.961 ± 0.047,0.983 ± 0.031
GTF3C3 (UniProt Q9Y5Q9),1.07 ± 0.046,1.04 ± 0.048,1.03 ± 0.047,1.02 ± 0.051,1.03 ± 0.045,1.01 ± 0.05
UniProt Q9Y2Z0 and related entries,0.976 ± 0.032,0.985 ± 0.026,0.962 ± 0.037,0.978 ± 0.039,0.945 ± 0.024,0.935 ± 0.014
AP3M1 (UniProt Q9Y2T2),0.953 ± 0.1,0.953 ± 0.053,0.931 ± 0.053,0.885 ± 0.089,0.932 ± 0.024,0.955 ± 0.048
UniProt Q9Y4E5 and related entries,1.12 ± 0.072,1.09 ± 0.034,1.17 ± 0.052,1.2 ± 0.018,1.269 ± 0.0063,1.28 ± 0.056
UniProt Q9Y2S0 and related entries,1.07 ± 0.11,1.06 ± 0.093,1.09 ± 0.06,1.15 ± 0.12,1.06 ± 0.055,1.06 ± 0.13
UniProt Q9Y448 and related entries,0.866 ± 0.12,0.894 ± 0.085,0.908 ± 0.061,0.943 ± 0.077,0.892 ± 0.097,0.874 ± 0.089
UniProt Q9Y3D5 and related entries,1.01 ± 0.093,0.861 ± 0.14,0.869 ± 0.087,0.854 ± 0.24,0.828 ± 0.15,0.767 ± 0.15
UniProt Q9Y4F3 and related entries,0.946 ± 0.099,0.971 ± 0.057,1.01 ± 0.061,1.01 ± 0.1,1.05 ± 0.097,1.07 ± 0.053
UniProt Q9Y2L9-2|Q9Y2L9 and related entries,0.974 ± 0.039,0.955 ± 0.025,0.986 ± 0.055,0.929 ± 0.062,0.978 ± 0.1,0.997 ± 0.017
UniProt Q9Y2S2 and related entries,0.9283 ± 0.0087,0.967 ± 0.016,0.947 ± 0.036,0.934 ± 0.053,0.913 ± 0.019,0.953 ± 0.028
UniProt Q9Y2S6,0.864 ± 0.083,0.753 ± 0.078,0.73 ± 0.12,0.802 ± 0.14,0.691 ± 0.085,0.759 ± 0.2
ATP6V1D (UniProt Q9Y5K8),0.972 ± 0.055,0.967 ± 0.045,0.968 ± 0.037,0.918 ± 0.059,0.969 ± 0.047,0.949 ± 0.044
SNX8 (UniProt Q9Y5X2),1.05 ± 0.087,1.03 ± 0.038,1.05 ± 0.071,1.04 ± 0.03,1 ± 0.054,1.02 ± 0.068
USP20 (UniProt Q9Y2K6),1 ± 0.036,0.944 ± 0.088,0.966 ± 0.052,0.951 ± 0.087,0.986 ± 0.073,0.991 ± 0.055
R4GN35 and related entries (UniProt Q5VZ89),0.987 ± 0.075,0.952 ± 0.073,0.978 ± 0.079,0.967 ± 0.062,0.954 ± 0.086,0.947 ± 0.054
ICE1 (UniProt Q9Y2F5),1.18 ± 0.19,1.23 ± 0.23,1.24 ± 0.27,1.42 ± 0.38,1.22 ± 0.26,1.29 ± 0.33
UniProt Q9Y692 and related entries,0.952 ± 0.015,0.998 ± 0.059,1.02 ± 0.033,0.982 ± 0.04,0.956 ± 0.038,0.964 ± 0.039

# Two records drawn at random from the list so far:
Target,NP40-soluble protein abundance (concentration: 1mM),NP40-soluble protein abundance (concentration: 2mM),NP40-soluble protein abundance (concentration: 4mM),NP40-soluble protein abundance (concentration: 6mM),NP40-soluble protein abundance (concentration: 8mM),NP40-soluble protein abundance (concentration: 10mM)
ICE1 (UniProt Q9Y2F5),1.18 ± 0.19,1.23 ± 0.23,1.24 ± 0.27,1.42 ± 0.38,1.22 ± 0.26,1.29 ± 0.33
SNX8 (UniProt Q9Y5X2),1.05 ± 0.087,1.03 ± 0.038,1.05 ± 0.071,1.04 ± 0.03,1 ± 0.054,1.02 ± 0.068
